Record: PubChem BioAssay AID1159578 (Peter MacCallum Cancer Centre, 2015)
Assay: 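siRNA pools altering how lymphatic endothelial cells close a scratch wound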 (primary screen). Cells: human lymphatic endothelial cells. Reagent: siRNA pool against human genes, 40 nM. Timing: 48 h after transfection. Measured: 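High-content imaging of dye-stained cells in a scratch assay measures filled wound area and nuclei per well; duplicate means given as ratio to mock and robust z-score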. Direction: migration robust z-score: higher = faster migration into the scratch; nuclei per well: higher = more cells in the well. Active means: 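Pools averaging fewer than 3300 nuclei are never called; remaining pools count as changed when migration robust z lies outside -2 to 2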. Meaning of the calls: active = migration changed; inactive = no migration change, or too few cells.
Shown is an unselected part of about 18,000 deposited reagents. About 1,030 of them (5.7%) were called active. 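Inactive calls also include pools with fewer than 3300 nuclei, whose migration was not assessed.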 Raw values are not corrected between plates. Further read-outs or replicates are left out here.

With SLC16A5 (GeneID 9121), what does the deposit list?
migration robust z-score: -1.61; migration class with cell-count check: migration z between -2 and 2; enough cells; nuclei per well, duplicate mean: 4702; Outcome: inactive

For MYO1G (GeneID 64005), how do the results read?
migration robust z-score: -0.43; migration class with cell-count check: migration z between -2 and 2; enough cells; nuclei per well, duplicate mean: 5746; Outcome: inactive

What did the screen give for RPUSD2 (GeneID 27079)?
migration robust z-score: -0.68; migration class with cell-count check: migration z between -2 and 2; enough cells; nuclei per well, duplicate mean: 7024; Outcome: inactive

With ZBED2 (GeneID 79413), what does the deposit list?
migration robust z-score: -0.05; migration class with cell-count check: migration z between -2 and 2; enough cells; nuclei per well, duplicate mean: 5583; Outcome: inactive

With GCSAML (GeneID 148823), what does the deposit list?
migration robust z-score: 0.41; migration class with cell-count check: migration z between -2 and 2; enough cells; nuclei per well, duplicate mean: 4570; Outcome: inactive

With RTL4 (GeneID 340595), how do the results read?
migration robust z-score: 1.34; migration class with cell-count check: migration z between -2 and 2; enough cells; nuclei per well, duplicate mean: 6205; Outcome: inactive

For RAB35 (GeneID 11021), what was measured?
migration robust z-score: -1.99; migration class with cell-count check: migration z between -2 and 2; enough cells; nuclei per well, duplicate mean: 3310; Outcome: inactive

Which result is listed for NMD3 (GeneID 51068)?
migration robust z-score: -0.62; migration class with cell-count check: migration z between -2 and 2; enough cells; nuclei per well, duplicate mean: 6640; Outcome: inactive

How did the screen score FAM131B (GeneID 9715)?
migration robust z-score: -0.16; migration class with cell-count check: migration z between -2 and 2; enough cells; nuclei per well, duplicate mean: 4985; Outcome: inactive

With RPAP2 (GeneID 79871), what does the deposit list?
migration robust z-score: -1.73; migration class with cell-count check: migration z between -2 and 2; enough cells; nuclei per well, duplicate mean: 5662; Outcome: inactive

How did the screen score KRTAP1-5 (GeneID 83895)?
migration robust z-score: -0.21; migration class with cell-count check: migration z between -2 and 2; enough cells; nuclei per well, duplicate mean: 5060; Outcome: inactive

With PCDHGA1 (GeneID 56114), what does the deposit list?
migration robust z-score: -0.22; migration class with cell-count check: migration z between -2 and 2; enough cells; nuclei per well, duplicate mean: 5186; Outcome: inactive

4 entries already listed, arranged by “nuclei per well, duplicate mean”, highest first.
RPUSD2 (GeneID 27079): migration robust z-score = -0.68; migration class with cell-count check = migration z between -2 and 2; enough cells; nuclei per well, duplicate mean = 7024; Outcome = inactive
MYO1G (GeneID 64005): migration robust z-score = -0.43; migration class with cell-count check = migration z between -2 and 2; enough cells; nuclei per well, duplicate mean = 5746; Outcome = inactive
ZBED2 (GeneID 79413): migration robust z-score = -0.05; migration class with cell-count check = migration z between -2 and 2; enough cells; nuclei per well, duplicate mean = 5583; Outcome = inactive
SLC16A5 (GeneID 9121): migration robust z-score = -1.61; migration class with cell-count check = migration z between -2 and 2; enough cells; nuclei per well, duplicate mean = 4702; Outcome = inactive

More records follow:
For FGL2 (GeneID 10875), how do the results read?
migration robust z-score: 0.39; migration class with cell-count check: migration z between -2 and 2; enough cells; nuclei per well, duplicate mean: 4734; Outcome: inactive

What did the screen give for AKR7A3 (GeneID 22977)?
migration robust z-score: 0.98; migration class with cell-count check: migration z between -2 and 2; enough cells; nuclei per well, duplicate mean: 5932; Outcome: inactive

What is on record for TMEM190 (GeneID 147744)?
migration robust z-score: -0.08; migration class with cell-count check: migration z between -2 and 2; enough cells; nuclei per well, duplicate mean: 6474; Outcome: inactive

With ICMT (GeneID 23463), how do the results read?
migration robust z-score: 0.36; migration class with cell-count check: migration z between -2 and 2; enough cells; nuclei per well, duplicate mean: 3840; Outcome: inactive

Which result is listed for YDJC (GeneID 150223)?
migration robust z-score: -0.12; migration class with cell-count check: migration z between -2 and 2; enough cells; nuclei per well, duplicate mean: 5347; Outcome: inactive

What is on record for ZC3HAV1 (GeneID 56829)?
migration robust z-score: 0.18; migration class with cell-count check: migration z between -2 and 2; enough cells; nuclei per well, duplicate mean: 5656; Outcome: inactive

What did the screen give for PLCD3 (GeneID 113026)?
migration robust z-score: 0.32; migration class with cell-count check: migration z between -2 and 2; enough cells; nuclei per well, duplicate mean: 6034; Outcome: inactive

What did the screen give for NARS2 (GeneID 79731)?
migration robust z-score: -1.03; migration class with cell-count check: migration z between -2 and 2; enough cells; nuclei per well, duplicate mean: 6241; Outcome: inactive

What is on record for DPEP3 (GeneID 64180)?
migration robust z-score: 0.16; migration class with cell-count check: migration z between -2 and 2; enough cells; nuclei per well, duplicate mean: 5400; Outcome: inactive
